Experimental data reported in PubChem BioAssay AID1487 (National Center for Advancing Translational Sciences (NCATS), 2009).
This is one part of the list. Further columns of the screen follow, without active or inactive calls. Most of these compounds were active or inconclusive in the main read-out, so they are no random draw. Words in brackets tell the shape of the fitted curve; partial curves, single points and poor fits give uncertain potencies.

Experiment: qHTS Assay for Modulators of Lamin A Splicing
Details: HeLa LMNA splicing GFP/RFP minigene ratio, 48 h
Outline: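 S3 HeLa cells stably expressing lamin A-EGFP splicing minigene plus DsRed2, 600 cells/well, 48 h compound exposure at 37C. Laser-scanning cytometry; analysed as GFP (500-530 nm)/RFP (575-640 nm) total intensity ratio; 0.5% DMSO vehicle.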

[1] = measured here: GFP splicing reporter channel
[2] = measured here: RFP viability control channel

Structure (SMILES) | AC50 [1] | AC50 [2]
N#C/C(=N\Nc1c(Cl)cccc1Cl)C(=O)NN | 17.8 µM [falling, single point] | 14.1 µM [falling, partial curve, poor fit]
CSc1nc(-c2ccco2)nn1C(=O)c1ccccc1 | – | 0.00794 µM [falling, full curve, poor fit]
C=CCNC1=C(Cl)C(=O)c2ccccc2C1=O | – | 22.4 µM [rising, single point]
O=C(Nc1ccccc1)OC1CCC2CC1CCC2OC(=O)Nc1ccccc1 (stereo not drawn) | 8.91 µM [rising, partial curve] | 14.1 µM [rising, partial curve]
O=C(Oc1ccc(F)cc1C(=O)/C=C/c1cccs1)c1cccc([N+](=O)[O-])c1 | 35.5 µM [rising, single point] | –
COc1ccc(/C=C2/SC(c3ccc(C)cc3)=NC2=O)cc1OC | – | 35.5 µM [rising, single point]
CN1C(=O)c2ccccc2Sc2ccc(NC(=O)Cc3ccc(Cl)cc3)cc21 | 2.82 µM [falling, partial curve, poor fit] | –
CC(C)n1cc(/C=N/NC(=O)COc2cccc3cccnc23)c2ccccc21 | – | 7.94 µM [rising, partial curve, poor fit]
Cc1c(C(=O)OCc2ccccc2)[nH]c2c1C(=O)CC(c1ccco1)C2 (stereo not drawn) | – | 0.398 µM [rising, full curve]
O=C(CNC(=O)C12CC3CC(CC(C3)C1)C2)N1CCN(S(=O)(=O)c2cccs2)CC1 | – | 20 µM [rising, partial curve, poor fit]
Cc1cc(C)n(-c2ncnc3ccccc23)n1 | – | 0.2 µM [falling, full curve]
N=c1ccn2c(n1)O[C@H]1[C@@H](O)[C@@H](CO)O[C@H]12 | 0.447 µM [falling, full curve] | 0.0631 µM [rising, full curve, poor fit]
CCOC(=O)c1cccc(NC(=O)C2COc3ccc(OC)cc3C2)c1 (stereo not drawn) | 7.94 µM [falling, partial curve, poor fit] | –
CC1=CC(C)(C)Nc2ccc(OC(=O)C(C)N3C(=O)c4ccccc4C3=O)cc21 (stereo not drawn) | 35.5 µM [falling, single point] | 2.51 µM [falling, partial curve]
CCOc1ccc(NC(=S)NN(C)C(=S)Nc2ccc(OCC)cc2)cc1 | – | 12.6 µM [rising, single point]
COc1ccc(-n2ncc3c(NC(C)C)ncnc32)cc1 | – | 17.8 µM [rising, single point]
O=[N+]([O-])c1ccc(NC2CCCC2)cc1 | 0.00501 µM [rising, full curve, poor fit] | 35.5 µM [rising, single point]
CCOP(=O)(OCC)C(NC(=O)Nc1ccc(Cl)c(Cl)c1)c1ccccc1 (stereo not drawn) | 0.891 µM [falling, full curve, poor fit] | –
C/C(=N\NC(=O)c1ccc(C)cc1C)c1ccc(-n2ccnc2)cc1 | – | 2 µM [falling, full curve, poor fit]
CCC1CN(C(=O)NCc2ccc(F)cc2)c2cc(C)ccc2O1 (stereo not drawn) | – | 12.6 µM [rising, partial curve]
Cc1ccccc1N1CCN(C(=S)c2ccc(-c3cccc([N+](=O)[O-])c3)o2)CC1 | 1.41 µM [rising, partial curve] | 1 µM [rising, full curve]
Cc1cc(C(=O)N/N=C/c2cc(Br)cc(Br)c2OC(=O)c2ccccc2)n[nH]1 | 35.5 µM [falling, single point] | 5.01 µM [rising, single point]
CCN(CC)C(=O)c1c([N+](=O)[O-])c(C(C)(C)C)nn1C | 0.01 µM [rising, full curve, poor fit] | –
CCCCNC(=O)CNC(=O)c1cccs1 | 0.501 µM [falling, single point] | –
Oc1c(Br)cc(Br)cc1C=NCc1ccc(F)cc1 | 35.5 µM [falling, single point] | –
COc1ccccc1CNc1cc(-c2ccccc2Cl)ncn1 | 11.2 µM [falling, partial curve] | –
CCOC(=O)CC(=O)CSc1nc2c(sc(=S)n2-c2ccccc2)c(=O)[nH]1 | – | 0.708 µM [falling, partial curve, poor fit]
O=C1ON=C(c2ccc(Cl)cc2)/C1=C/c1ccc(O)cc1 | 35.5 µM [falling, single point] | 35.5 µM [falling, single point]
CC(C)C1=CC2=CC[C@@H]3[C@](C)(CCC[C@@]3(C)C(=O)O)[C@H]2CC1 | 0.0355 µM [rising, full curve, poor fit] | 2 µM [rising, partial curve, poor fit]

Look-ups from the results shown.
Under AC50 [2], COc1ccc(-n2ncc3c(NC(C)C)ncnc32)cc1 is listed with 17.8 µM [rising, single point]
Under AC50 [2], Cc1cc(C)n(-c2ncnc3ccccc23)n1 is listed with 0.2 µM [falling, full curve]
